Where “and” joins values, the source holds several entries; their conditions need not be identical. Identical values can stand only once. The list shows a part of the results. These are further read-outs of the screen, such as a control signal, another cell line or another target. No call is given for them. Most of these compounds were active or inconclusive in the main read-out, so they are no random draw. Words in brackets tell the shape of the fitted curve; partial curves, single points and poor fits give uncertain potencies.
Assay: Validation of Assay for Modulators of Lamin A Splicing (AID 1459)
Details: Lamin A splicing dual RFP/GFP fluorescence reporter, ratio; measured here: RFP channel
In short: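 HeLa S3 lamin A-EGFP/DsRed2 stable clone, 600 cells/well, Opti-MEM 2% FBS; compounds by pin tool; 48 hrs, 37 °C/5% CO2; Acumen 488 nm scan, objects 10-100 um; GFP/RFP intensity ratio.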

| Structure (SMILES) | AC50 |
| --- | --- |
| CC(C)[C@@]1(NC(=O)[C@@H]2C[C@@H]3c4cccc5[nH]cc(c45)C[C@H]3N(C)C2)O[C@@]2(O)C3CCCN3C(=O)[C@H](Cc3ccccc3)N2C1=O (some centres not stated) | 12.6 µM [falling, partial curve] |
| CC(C)(C)c1cc(C=C(C#N)C#N)cc(C(C)(C)C)c1O | 35.5 µM [falling, single point] |
| Oc1ccccc1O | 35.5 µM [falling, single point] |
| C/C=C(/C)C(=O)O[C@H]1C(C)=C2C([C@@H]1OC(=O)CCCCCCC)[C@@](C)(OC(C)=O)C[C@@H](OC(=O)CCC)[C@@]1(O)[C@H]2OC(=O)[C@@]1(C)O (some centres not stated) | 35.5 µM [falling, single point] |
| NC(Cc1ccc(N(CCCl)CCCl)cc1)C(=O)O (configuration not stated) | 35.5 µM [falling, single point] |
| Cc1ccc(S(=O)(=O)N[C@@H](CCCCN)C(=O)CCl)cc1 | 28.2 µM [falling, partial curve] |
| Nc1nc(N)c2nc(CNc3ccc(C(=O)NC(CCC(=O)O)C(=O)O)cc3)cnc2n1 (configuration not stated) | 0.0316 µM [falling, full curve] |
| CN1CC[C@@]2(C)c3cc(O)ccc3N(C)C12 (some centres not stated) | 11.2 µM [falling, partial curve] |
| NC(N)=N/N=C/c1c(Cl)cccc1Cl | 3.55 µM [falling, full curve, poor fit] |
| O=c1oc(Cl)c(Cl)c2ccccc12 | 35.5 µM [falling, single point] |
| O=c1[nH]cc(F)c(=O)[nH]1 | 0.158 µM [falling, full curve, poor fit] |
| OCCN1CCN(CCCN2c3ccccc3Sc3ccc(C(F)(F)F)cc32)CC1 | 25.1 µM [falling, single point] |

Assay: qHTS Assay for Lipid Storage Modulators (AID 1519)
Details: Drosophila S3 cells, BODIPY lipid droplet/cell ratio, laser cytometry; measured here: cell count channel max response; cells loaded with oleic acid
In short: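 Cells seeded at 5,000 per well were treated with compounds over a concentration series and loaded with oleic acid (400 uM, as added). Lipid droplet fluorescence (488 nm excitation, 500-530 nm channel) was read by laser-scanning cytometry and normalized to 20 uM Triacsin C.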

| Structure (SMILES) | max response |
| --- | --- |
| CCCN1CCCC2Cc3[nH]ncc3CC21 (configuration not stated) | 33.4% |
| NCC1(CC(=O)O)CCCCC1 | 49.4% |
| CC(C)(C)c1cc(C=C(C#N)C#N)cc(C(C)(C)C)c1O | -60.7% |
| CC[C@]1(O)C(=O)OCc2c1cc1n(c2=O)Cc2cc3ccccc3nc2-1 | 64.3% |
| C/C=C(/C)C(=O)O[C@H]1C(C)=C2C([C@@H]1OC(=O)CCCCCCC)[C@@](C)(OC(C)=O)C[C@@H](OC(=O)CCC)[C@@]1(O)[C@H]2OC(=O)[C@@]1(C)O (some centres not stated) | -42% |
| NC(Cc1ccc(N(CCCl)CCCl)cc1)C(=O)O (configuration not stated) | 66% |
| C[C@]12CC[C@H]3[C@@H](CCC4C[C@H](O)CC[C@@]43C)[C@@H]1CC[C@@H]2O (some centres not stated) | 49.8% |
| OC1CCCCC1N1CCC(c2ccccc2)CC1 (configuration not stated) | 62.4% |
| C[N+](C)(C)CCOC(=O)CBr | -18.9% |
| CCc1c(C(=O)OC)ncc2[nH]c3cc(OC)c(OC)cc3c12 | 66% |
| NC(=NCc1ccc(Cl)cc1)SCCCc1cnc[nH]1 | 80.2% |
| NC(N)=N/N=C/c1c(Cl)cccc1Cl | 44.5% |
| C[C@H]1OC[C@@H](C[N+](C)(C)C)O1 | 35% |
| C[C@@H]1O[C@@H](O[C@H]2C[C@@H](O)[C@]3(CO)[C@@H]4C(CC[C@]3(O)C2)[C@@]2(O)CC[C@H](C3=CC(=O)OC3)[C@@]2(C)C[C@H]4O)[C@H](O)[C@H](O)[C@H]1O (some centres not stated) | 26.4% and 48.9% |
| C[C@]12CCC3C(CC[C@]4(O)C[C@@H](O)CC[C@]34C=O)[C@@]1(O)CC[C@@H]2C1=CC(=O)OC1 (some centres not stated) | 12.5% |
| CNC(=O)OCC[N+](C)(C)C | 52.9% |
| CN1CC[C@@H]2CN3CCc4cccc(c43)[C@H]2C1 | 55.6% |
| CCC[C@@H]1CC2=CC(=O)CC[C@]2(C)[C@@H]2CC[C@@]3(C)[C@H](CC[C@]3(O)CCC(=O)O)[C@H]12 | 36.7% |
| CCCCCCCCCOc1ccc2[nH]cc(CCN)c2c1 | -7.02% |
| O=C(NCC1CCCCN1)c1cc(OCC(F)(F)F)ccc1OCC(F)(F)F (configuration not stated) | 57.6% |

Same assay, conditions: Drosophila S3 cells, BODIPY lipid droplet/cell ratio, laser cytometry; measured here: cell number channel AC50; cells loaded with oleic acid

| Structure (SMILES) | AC50 |
| --- | --- |
| C/C=C(/C)C(=O)O[C@H]1C(C)=C2C([C@@H]1OC(=O)CCCCCCC)[C@@](C)(OC(C)=O)C[C@@H](OC(=O)CCC)[C@@]1(O)[C@H]2OC(=O)[C@@]1(C)O (some centres not stated) | 35.5 µM [falling, single point] |
| C[N+](C)(C)CCOC(=O)CBr | 2.82 µM [falling, full curve, poor fit] |
| NC(N)=N/N=C/c1c(Cl)cccc1Cl | 35.5 µM [rising, single point] |

Same assay, conditions: Drosophila S3 cells, BODIPY lipid droplet/cell ratio, laser cytometry; measured here: lipid (BODIPY) channel AC50; cells loaded with oleic acid

| Structure (SMILES) | AC50 |
| --- | --- |
| C/C=C(/C)C(=O)O[C@H]1C(C)=C2C([C@@H]1OC(=O)CCCCCCC)[C@@](C)(OC(C)=O)C[C@@H](OC(=O)CCC)[C@@]1(O)[C@H]2OC(=O)[C@@]1(C)O (some centres not stated) | 39.8 µM [falling, partial curve, poor fit] |
| C[N+](C)(C)CCOC(=O)CBr | 2.82 µM [falling, full curve, poor fit] |
| CC1OC(=O)C(C(C)C)NC(=O)C(C(C)C)OC(=O)C(C(C)C)NC(=O)C(C)OC(=O)C(C(C)C)NC(=O)C(C(C)C)OC(=O)C(C(C)C)NC(=O)C(C)OC(=O)C(C(C)C)NC(=O)C(C(C)C)OC(=O)C(C(C)C)NC1=O (configuration not stated) | 0.282 µM [falling, full curve] |
| CC(=O)OC1C[C@@]2(C)C(c3ccoc3)C[C@H]3O[C@@]32[C@@]2(C)C(=O)C(O)=C3C(C)(C)C(=O)C=C[C@]3(C)C12 (some centres not stated) | 14.1 µM [falling, partial curve] |
| COc1cc2c(cc1OC)[C@@H]1C(=O)c3ccc4oc(C(C)C)cc4c3OC1CO2 (some centres not stated) | 2.24 µM [falling, full curve] |
| NC(N)=N/N=C/c1c(Cl)cccc1Cl | 35.5 µM [rising, single point] |
| C[C@@H]1O[C@@H](O[C@H]2C[C@@H](O)[C@]3(CO)[C@@H]4C(CC[C@]3(O)C2)[C@@]2(O)CC[C@H](C3=CC(=O)OC3)[C@@]2(C)C[C@H]4O)[C@H](O)[C@H](O)[C@H]1O (some centres not stated) | 17.8 µM [rising, partial curve, poor fit] |

From PubChem BioAssay (NCATS)
